Measured values reported in paper PMC6297782, “DNA-Mediated Interferon Signature Induction by SLE Serum Occurs in Monocytes Through Two Pathways: A Mechanism to Inhibit Both Pathways” (Frontiers in Immunology, 2018).
These are yes or no findings as the source states them, for the method shown. Some results given as binding are weak or reduced against the parent protein; the word gives no strength.

By UniProt entry, the sequences of proteins in these tests, tags left out. Residues count along the entry.
UniProt Q15109, residues 23-342: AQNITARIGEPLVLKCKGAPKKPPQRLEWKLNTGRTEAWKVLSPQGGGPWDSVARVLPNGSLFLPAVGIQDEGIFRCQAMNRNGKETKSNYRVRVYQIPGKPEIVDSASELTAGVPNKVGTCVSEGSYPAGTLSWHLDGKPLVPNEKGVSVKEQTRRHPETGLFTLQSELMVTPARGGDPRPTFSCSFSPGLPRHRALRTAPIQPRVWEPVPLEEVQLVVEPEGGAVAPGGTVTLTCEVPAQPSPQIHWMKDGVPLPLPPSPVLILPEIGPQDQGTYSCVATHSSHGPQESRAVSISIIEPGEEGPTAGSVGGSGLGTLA
UniProt P09429: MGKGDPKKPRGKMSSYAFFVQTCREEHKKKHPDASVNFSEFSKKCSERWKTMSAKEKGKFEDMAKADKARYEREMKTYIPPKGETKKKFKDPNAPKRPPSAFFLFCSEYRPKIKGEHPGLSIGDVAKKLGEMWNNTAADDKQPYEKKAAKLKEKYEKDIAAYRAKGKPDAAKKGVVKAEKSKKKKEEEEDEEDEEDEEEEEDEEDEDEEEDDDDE

Columns and labels:
[1] = target: Human recombinant sRAGE (human) (UniProt Q15109); assay: SPR; inhibition assay, Biacore T200; sRAGE amine-coupled to a CM5 chip (~500 RU); HMGB1 (0.5 μM) with or without DWEYS 50 to 1.6 μM injected at 30 μL/min for 60 s, 25°C; PBS + 0.05 Tween 20; both purified
[2] = target: Recombinant HMGB1 (Calmodulin Binding Protein Epitope, Cbp tagged) (UniProt P09429); assay: ELISA; HMGB1-coated plates, increasing concentrations of DWEYS; both purified
[3] = target: Recombinant HMGB1 (Calmodulin Binding Protein Epitope, Cbp tagged) (UniProt P09429); assay: SPR; Biacore T200; HMGB1 amine-coupled to a CM5 chip (~600 RU); peptide injected at 16-250 μM, 20 μL/min, 120 s, 25°C; 1:1 binding assumed; apparent KD; both purified

Row | binding [1] | binding [2] | binding [3] | Molecule
1 | binds | – | – | Recombinant HMGB1 (Calmodulin Binding Protein Epitope, Cbp tagged) (from UniProt P09429 1-215)
2 | – | binds | – | DWEYS (the biotinylated form may have been used there; also called pentapeptide DWEYS; DNA mimetope; source: synthetic peptide (GenScript)) [DWEYS peptide]
3 | – | no binding | no binding | TATAT [control peptide (sequence: TATAT)]
